This passage reports binding results from article PMC4264851.

Amino acid sequences for entries named in this document (tags omitted).
UniProt P42945: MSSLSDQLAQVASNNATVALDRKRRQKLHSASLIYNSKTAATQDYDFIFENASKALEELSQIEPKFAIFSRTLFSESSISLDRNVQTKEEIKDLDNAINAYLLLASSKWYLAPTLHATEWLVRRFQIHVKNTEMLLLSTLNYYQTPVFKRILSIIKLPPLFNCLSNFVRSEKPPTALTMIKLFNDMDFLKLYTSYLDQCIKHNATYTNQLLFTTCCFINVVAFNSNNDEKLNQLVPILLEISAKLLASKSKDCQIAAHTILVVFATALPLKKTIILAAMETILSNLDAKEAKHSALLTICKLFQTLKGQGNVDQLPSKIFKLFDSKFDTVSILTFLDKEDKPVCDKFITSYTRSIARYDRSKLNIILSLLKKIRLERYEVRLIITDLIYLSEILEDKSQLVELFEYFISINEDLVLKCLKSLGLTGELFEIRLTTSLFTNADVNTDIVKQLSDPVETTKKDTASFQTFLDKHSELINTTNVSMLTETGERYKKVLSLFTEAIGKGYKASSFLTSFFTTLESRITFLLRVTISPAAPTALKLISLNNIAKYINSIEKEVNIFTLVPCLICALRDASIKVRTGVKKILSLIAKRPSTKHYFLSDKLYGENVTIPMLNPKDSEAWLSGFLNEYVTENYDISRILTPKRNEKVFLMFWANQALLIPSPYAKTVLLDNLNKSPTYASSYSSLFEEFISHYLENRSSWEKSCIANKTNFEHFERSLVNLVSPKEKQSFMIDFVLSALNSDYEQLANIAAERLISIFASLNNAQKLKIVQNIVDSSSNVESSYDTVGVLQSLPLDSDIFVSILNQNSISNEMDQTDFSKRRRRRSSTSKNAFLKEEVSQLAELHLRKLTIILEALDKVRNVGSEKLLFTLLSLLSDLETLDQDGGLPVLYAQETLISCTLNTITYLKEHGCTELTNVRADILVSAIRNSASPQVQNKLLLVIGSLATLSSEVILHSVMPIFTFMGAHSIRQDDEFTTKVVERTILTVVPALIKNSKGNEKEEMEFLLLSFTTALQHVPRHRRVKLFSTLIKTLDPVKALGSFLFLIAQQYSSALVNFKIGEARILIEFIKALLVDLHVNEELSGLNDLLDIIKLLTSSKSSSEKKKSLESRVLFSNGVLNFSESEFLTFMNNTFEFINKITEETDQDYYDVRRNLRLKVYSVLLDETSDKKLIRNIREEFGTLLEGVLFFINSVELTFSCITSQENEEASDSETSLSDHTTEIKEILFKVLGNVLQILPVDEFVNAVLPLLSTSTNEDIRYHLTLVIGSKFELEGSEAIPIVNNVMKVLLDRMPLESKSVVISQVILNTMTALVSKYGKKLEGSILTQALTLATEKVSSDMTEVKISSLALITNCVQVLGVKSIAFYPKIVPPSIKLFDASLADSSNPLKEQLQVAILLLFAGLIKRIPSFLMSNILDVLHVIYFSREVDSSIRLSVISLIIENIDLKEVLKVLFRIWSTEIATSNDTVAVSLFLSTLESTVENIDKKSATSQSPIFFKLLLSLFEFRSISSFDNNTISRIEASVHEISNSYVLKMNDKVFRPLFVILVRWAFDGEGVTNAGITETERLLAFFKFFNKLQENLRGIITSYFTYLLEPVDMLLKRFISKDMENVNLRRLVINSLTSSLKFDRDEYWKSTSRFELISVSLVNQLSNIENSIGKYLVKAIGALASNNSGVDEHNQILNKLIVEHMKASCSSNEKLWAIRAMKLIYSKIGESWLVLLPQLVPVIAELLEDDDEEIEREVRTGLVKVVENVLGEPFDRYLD

Experiment [1] has as its target T1, Nan1-FLAG (S. cerevisiae) (UniProt Q02931).
T1 sequence: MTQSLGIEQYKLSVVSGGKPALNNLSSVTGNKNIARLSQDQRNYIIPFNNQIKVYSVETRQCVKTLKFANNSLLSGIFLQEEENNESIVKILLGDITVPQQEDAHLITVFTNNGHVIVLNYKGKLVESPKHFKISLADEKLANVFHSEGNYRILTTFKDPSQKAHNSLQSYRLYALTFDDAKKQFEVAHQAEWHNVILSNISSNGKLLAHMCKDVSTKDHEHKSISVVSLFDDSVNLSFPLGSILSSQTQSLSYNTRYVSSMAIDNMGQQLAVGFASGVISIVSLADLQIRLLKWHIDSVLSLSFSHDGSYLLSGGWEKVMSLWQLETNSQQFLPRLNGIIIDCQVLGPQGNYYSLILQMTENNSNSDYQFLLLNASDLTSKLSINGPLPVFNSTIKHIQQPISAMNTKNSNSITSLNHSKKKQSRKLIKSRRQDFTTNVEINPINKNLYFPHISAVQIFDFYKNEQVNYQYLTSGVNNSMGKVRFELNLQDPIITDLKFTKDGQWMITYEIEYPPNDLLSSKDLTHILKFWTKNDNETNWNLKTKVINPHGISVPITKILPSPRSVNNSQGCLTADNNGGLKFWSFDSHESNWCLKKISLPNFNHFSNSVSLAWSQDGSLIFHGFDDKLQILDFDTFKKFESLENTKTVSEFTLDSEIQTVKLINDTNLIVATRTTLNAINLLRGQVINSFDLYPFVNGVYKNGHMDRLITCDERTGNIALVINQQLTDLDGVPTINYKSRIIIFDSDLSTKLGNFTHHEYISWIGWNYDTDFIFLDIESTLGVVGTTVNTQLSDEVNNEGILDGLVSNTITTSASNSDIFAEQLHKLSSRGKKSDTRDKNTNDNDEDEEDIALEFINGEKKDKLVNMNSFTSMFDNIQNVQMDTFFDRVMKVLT
Nature of the experiment: affinity purification with mass spectrometry; only Nan1-FLAG and Utp10 co-expressed in SF21 cells (bacmid K1999); one-step anti-FLAG purification, FLAG peptide elution; SDS-PAGE and MS.

For experiment [2], the target named is T2, Nan1-HA (S. cerevisiae) (UniProt Q02931).
T2 sequence: T1 sequence
Nature of the experiment: affinity purification with mass spectrometry; bacmid K2000 (all seven tUTP candidates); two-step: anti-FLAG eluate (Utp15-FLAG) purified again on anti-HA affinity matrix with Nan1-HA as bait, HA peptide elution; SDS-PAGE, Coomassie, MS of bands.

Experiment [3] has as its target T3, Utp21-TAP (S. cerevisiae) (UniProt Q06078).
T3 sequence: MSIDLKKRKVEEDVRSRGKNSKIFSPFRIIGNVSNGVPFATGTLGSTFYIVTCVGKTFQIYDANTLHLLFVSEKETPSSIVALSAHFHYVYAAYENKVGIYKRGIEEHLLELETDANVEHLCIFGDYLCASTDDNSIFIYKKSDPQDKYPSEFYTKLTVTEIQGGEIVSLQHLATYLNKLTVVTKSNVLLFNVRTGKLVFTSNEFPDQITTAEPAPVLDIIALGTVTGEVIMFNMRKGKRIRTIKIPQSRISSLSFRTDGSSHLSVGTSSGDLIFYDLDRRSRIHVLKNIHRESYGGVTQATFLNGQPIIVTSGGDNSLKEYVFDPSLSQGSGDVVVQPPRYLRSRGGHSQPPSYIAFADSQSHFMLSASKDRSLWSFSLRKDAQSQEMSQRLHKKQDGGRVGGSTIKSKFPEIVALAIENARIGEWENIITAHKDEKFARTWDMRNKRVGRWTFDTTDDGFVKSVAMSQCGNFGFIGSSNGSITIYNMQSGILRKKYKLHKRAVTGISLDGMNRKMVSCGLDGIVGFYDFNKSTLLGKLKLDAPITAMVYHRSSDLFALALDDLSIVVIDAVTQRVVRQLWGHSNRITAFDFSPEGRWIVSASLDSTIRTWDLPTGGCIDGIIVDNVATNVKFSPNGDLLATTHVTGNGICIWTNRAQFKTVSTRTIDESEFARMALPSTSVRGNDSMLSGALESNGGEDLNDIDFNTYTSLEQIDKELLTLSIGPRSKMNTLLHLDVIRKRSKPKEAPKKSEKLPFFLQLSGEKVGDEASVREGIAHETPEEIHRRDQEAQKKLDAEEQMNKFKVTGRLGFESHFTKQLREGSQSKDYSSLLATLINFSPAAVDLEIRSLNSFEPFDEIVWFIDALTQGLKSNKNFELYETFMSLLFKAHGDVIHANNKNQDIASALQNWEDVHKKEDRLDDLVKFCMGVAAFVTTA
Nature of the experiment: affinity purification with mass spectrometry; only Utp21-TAP, Utp6-HA, Utp18 and Pwp2 co-expressed in SF21 cells (bacmid K2137); one-step, bait Utp21-TAP on IgG-coupled beads with TEV elution, or bait Utp6-HA by anti-HA affinity purification; SDS-PAGE and MS.

Experiment [4] addresses T4, Utp12-FLAG (S. cerevisiae) (UniProt Q12220).
T4 sequence: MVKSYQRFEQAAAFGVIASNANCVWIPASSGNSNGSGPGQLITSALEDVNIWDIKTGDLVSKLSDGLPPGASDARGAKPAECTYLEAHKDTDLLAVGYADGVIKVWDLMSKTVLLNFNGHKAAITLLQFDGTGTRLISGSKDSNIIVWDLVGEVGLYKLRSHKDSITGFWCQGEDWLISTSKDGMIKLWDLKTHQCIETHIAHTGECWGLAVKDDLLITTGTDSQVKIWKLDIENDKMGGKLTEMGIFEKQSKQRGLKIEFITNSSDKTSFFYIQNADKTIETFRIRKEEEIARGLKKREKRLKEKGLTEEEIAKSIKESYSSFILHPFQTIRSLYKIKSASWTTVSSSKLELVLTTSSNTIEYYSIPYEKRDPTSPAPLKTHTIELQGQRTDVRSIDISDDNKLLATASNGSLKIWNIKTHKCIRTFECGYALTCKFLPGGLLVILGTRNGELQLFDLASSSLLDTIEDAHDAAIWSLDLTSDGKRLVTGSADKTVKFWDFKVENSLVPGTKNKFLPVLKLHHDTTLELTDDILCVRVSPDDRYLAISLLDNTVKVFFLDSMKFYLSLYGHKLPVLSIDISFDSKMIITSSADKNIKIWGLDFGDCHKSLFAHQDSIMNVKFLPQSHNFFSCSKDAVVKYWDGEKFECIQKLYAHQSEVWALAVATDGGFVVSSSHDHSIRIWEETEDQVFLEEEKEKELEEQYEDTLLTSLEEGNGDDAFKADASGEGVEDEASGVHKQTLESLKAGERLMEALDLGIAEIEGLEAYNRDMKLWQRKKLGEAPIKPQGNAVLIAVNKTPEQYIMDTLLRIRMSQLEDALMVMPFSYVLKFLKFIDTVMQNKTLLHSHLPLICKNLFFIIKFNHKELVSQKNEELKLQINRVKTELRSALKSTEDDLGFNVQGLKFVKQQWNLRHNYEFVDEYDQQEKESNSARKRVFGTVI
The experiment can be described thus: affinity purification with mass spectrometry; Pwp2, Utp6-HA, Utp12-FLAG, Utp13, Utp18 and Utp21 co-expressed in SF21 cells (bacmid K1992); one-step, bait Utp12-FLAG on anti-FLAG affinity matrix, FLAG peptide elution; SDS-PAGE, Coomassie, MS of bands.

In experiment [5] the target is T2, Nan1-HA (S. cerevisiae). The experiment can be described thus: affinity purification with mass spectrometry; bacmid K2000 (all seven tUTP candidates); two-step: anti-FLAG eluate (Utp15-FLAG) purified again on anti-HA affinity matrix with Nan1-HA as bait, HA peptide elution; SDS-PAGE, Coomassie, MS of bands. This is another data set of the same source.
Experiment [6] has as its target T5, Utp4-TAP (S. cerevisiae) (UniProt Q06679).
T5 sequence: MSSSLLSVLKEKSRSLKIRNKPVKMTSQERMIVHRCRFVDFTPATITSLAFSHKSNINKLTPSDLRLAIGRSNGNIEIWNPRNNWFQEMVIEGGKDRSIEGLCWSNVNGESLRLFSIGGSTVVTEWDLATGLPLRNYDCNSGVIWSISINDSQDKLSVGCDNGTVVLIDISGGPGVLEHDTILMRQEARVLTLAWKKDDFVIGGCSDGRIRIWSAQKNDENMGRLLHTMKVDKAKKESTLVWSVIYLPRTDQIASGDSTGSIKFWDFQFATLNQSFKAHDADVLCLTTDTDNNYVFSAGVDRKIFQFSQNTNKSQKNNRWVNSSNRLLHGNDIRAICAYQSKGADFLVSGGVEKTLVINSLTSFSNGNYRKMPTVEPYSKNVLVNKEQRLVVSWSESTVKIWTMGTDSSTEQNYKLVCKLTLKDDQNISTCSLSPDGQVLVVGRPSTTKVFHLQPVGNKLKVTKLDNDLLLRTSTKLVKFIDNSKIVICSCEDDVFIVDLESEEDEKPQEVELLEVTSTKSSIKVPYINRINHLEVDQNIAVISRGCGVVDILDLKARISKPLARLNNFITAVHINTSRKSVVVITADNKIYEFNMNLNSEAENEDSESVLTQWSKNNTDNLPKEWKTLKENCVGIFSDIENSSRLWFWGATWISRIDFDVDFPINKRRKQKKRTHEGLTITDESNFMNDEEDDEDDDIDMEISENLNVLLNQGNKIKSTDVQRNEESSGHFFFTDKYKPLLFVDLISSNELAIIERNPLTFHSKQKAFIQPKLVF
Nature of the experiment: affinity purification with mass spectrometry; Utp4-TAP, Utp5, Utp8, Utp9 and Utp15-FLAG co-expressed in SF21 cells (bacmid K2123), without Nan1 and Utp10; one-step, bait Utp4-TAP on IgG Sepharose, TEV elution; SDS-PAGE, Coomassie, MS of bands.

Experiment [7] deals with T5, Utp4-TAP (S. cerevisiae). The experiment can be described thus: affinity purification with mass spectrometry; only Utp4-TAP, Utp5 and Utp15-FLAG co-expressed in SF21 cells (bacmid K2209); one-step, bait Utp4-TAP on IgG-coupled beads, TEV elution; SDS-PAGE and MS.

Like-named read-outs stand apart in the source and are kept apart here. These are yes or no findings as the source states them, for the method shown. Binding seen in cells or lysates may run through a third protein. A yes stands for co-enrichment or nearness to the bait. Other partners may have been found. For some of these results: Where a sequence is shown, tags or fusion partners need not be part of it.

In the case of Utp10 (from UniProt P42945 1-1769), the binding entry in experiment [1] and in experiment [2] was “binds” throughout.

B1: Pwp2 (protein, UniProt P25635 1-923)
chain: MKSDFKFSNLLGTVYRQGNITFSDDGKQLLSPVGNRVSVFDLINNKSFTFEYEHRKNIAAIDLNKQGTLLISIDEDGRAILVNFKARNVLHHFNFKEKCSAVKFSPDGRLFALASGRFLQIWKTPDVNKDRQFAPFVRHRVHAGHFQDITSLTWSQDSRFILTTSKDLSAKIWSVDSEEKNLAATTFNGHRDYVMGAFFSHDQEKIYTVSKDGAVFVWEFTKRPSDDDDNESEDDDKQEEVDISKYSWRITKKHFFYANQAKVKCVTFHPATRLLAVGFTSGEFRLYDLPDFTLIQQLSMGQNPVNTVSVNQTGEWLAFGSSKLGQLLVYEWQSESYILKQQGHFDSTNSLAYSPDGSRVVTASEDGKIKVWDITSGFCLATFEEHTSSVTAVQFAKRGQVMFSSSLDGTVRAWDLIRYRNFRTFTGTERIQFNCLAVDPSGEVVCAGSLDNFDIHVWSVQTGQLLDALSGHEGPVSCLSFSQENSVLASASWDKTIRIWSIFGRSQQVEPIEVYSDVLALSMRPDGKEVAVSTLKGQISIFNIEDAKQVGNIDCRKDIISGRFNQDRFTAKNSERSKFFTTIHYSFDGMAIVAGGNNNSICLYDVPNEVLLKRFIVSRNMALNGTLEFLNSKKMTEAGSLDLIDDAGENSDLEDRIDNSLPGSQRGGDLSTRKMRPEVRVTSVQFSPTANAFAAASTEGLLIYSTNDTILFDPFDLDVDVTPHSTVEALREKQFLNALVMAFRLNEEYLINKVYEAIPIKEIPLVASNIPAIYLPRILKFIGDFAIESQHIEFNLIWIKALLSASGGYINEHKYLFSTAMRSIQRFIVRVAKEVVNTTTDNKYTYRFLVSTDGSMEDGAADDDEVLLKDDADEDNEENEENDVVMESDDEEGWIGFNGKDNKLPLSNENDSSDEEENEKELP
On to B1, for which the binding result in experiment [3] and in experiment [4] was “binds” throughout.

B2: Utp15-FLAG (protein, UniProt Q04305 1-513)
chain: MSTARPRIITSKAPLLPQQTTPEQRYWRQYTSAQLVKEHNSVTHISFNPQHPHDFAVTSSTRVQIFSSRTRQVIKTFSRFKDVVYSASFRSDGKLLCAGDATGLVSVYDSYNPRTILLSINASTHPTHVTKFHTQDNKILATASDDRVTRLWDISNAYEPQLELTGATDYVRTLSFIPAAPHLVATGSYDGLIRLYDTRSSGSTPIYSLNHDQPVENVIAVSPTQIVSCGGNNFKVWDLTSNKKLYERGNFNKAVTCLDYVENFDSPMQSALIASSLDGHVKVFDPLDNFQVKFGWKFSGPVLSCAVSPSTAQGNRHLVAGLSSGLLAIRTKKKEKRSSDKENAPASFNKNAKSNNFQRMMRGSEYQGDQEHIIHNDKVRSQRRMRAFERNINQFKWSEALDNAFVPGMAKELTLTVLQELRKRGKVRVALYGRDESTLEPLLNWCLKGIEDVRSASIVADWVAVVLELYGNTLESSPVLQELMIDLKTKVRHEIHKSKEAQRIEGMLQLLTS
As for B2, the binding entry in experiment [5] is “binds weakly”; in experiment [6] it was “binds”; in experiment [7], “binds”.
